These are yes or no findings as the source states them, for the method shown. In cells and extracts the contact can be indirect. Some binding calls cover weakened binding; strength is not graded here. Where a sequence is shown, tags or fusion partners need not be part of it.
Molecular target: T1, Flag-Foxd4l1.1 (Xenopus) (UniProt Q9PRJ8)
T1 sequence: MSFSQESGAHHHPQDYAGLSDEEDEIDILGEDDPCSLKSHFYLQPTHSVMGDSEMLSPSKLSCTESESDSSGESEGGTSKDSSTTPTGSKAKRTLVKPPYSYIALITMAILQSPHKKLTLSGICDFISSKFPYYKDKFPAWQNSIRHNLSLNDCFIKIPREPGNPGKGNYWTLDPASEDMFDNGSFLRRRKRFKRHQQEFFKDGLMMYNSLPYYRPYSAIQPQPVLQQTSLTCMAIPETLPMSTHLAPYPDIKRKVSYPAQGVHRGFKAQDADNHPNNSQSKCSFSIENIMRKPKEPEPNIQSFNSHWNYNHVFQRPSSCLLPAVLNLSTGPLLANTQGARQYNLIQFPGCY
Assay: co-IP; Xenopus embryos co-injected with Flag-foxd4l1.1 and HA-smad2/HA-smad3 (wild type or truncated) mRNA at the one-cell stage, harvested at stage 10.5 or 11; cleared lysates incubated overnight at 4 °C with anti-Flag, protein A/G beads; Western blot with anti-HA

Amino acid sequences for entries named in this document (tags omitted). A change or cut given only in a name is not applied to a line headed by its entry.
UniProt Q15796: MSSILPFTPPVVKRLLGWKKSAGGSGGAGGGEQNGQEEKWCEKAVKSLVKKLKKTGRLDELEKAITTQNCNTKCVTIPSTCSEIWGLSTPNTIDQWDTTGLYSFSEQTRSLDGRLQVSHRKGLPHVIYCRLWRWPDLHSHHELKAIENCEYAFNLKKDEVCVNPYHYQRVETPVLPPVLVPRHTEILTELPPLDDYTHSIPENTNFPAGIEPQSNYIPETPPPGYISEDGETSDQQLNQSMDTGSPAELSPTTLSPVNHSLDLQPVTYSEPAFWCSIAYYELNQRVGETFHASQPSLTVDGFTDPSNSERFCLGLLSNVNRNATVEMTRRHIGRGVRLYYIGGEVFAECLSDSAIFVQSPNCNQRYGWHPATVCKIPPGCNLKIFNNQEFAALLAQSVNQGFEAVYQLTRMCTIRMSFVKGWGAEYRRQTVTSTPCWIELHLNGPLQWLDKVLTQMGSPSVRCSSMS
UniProt P84022: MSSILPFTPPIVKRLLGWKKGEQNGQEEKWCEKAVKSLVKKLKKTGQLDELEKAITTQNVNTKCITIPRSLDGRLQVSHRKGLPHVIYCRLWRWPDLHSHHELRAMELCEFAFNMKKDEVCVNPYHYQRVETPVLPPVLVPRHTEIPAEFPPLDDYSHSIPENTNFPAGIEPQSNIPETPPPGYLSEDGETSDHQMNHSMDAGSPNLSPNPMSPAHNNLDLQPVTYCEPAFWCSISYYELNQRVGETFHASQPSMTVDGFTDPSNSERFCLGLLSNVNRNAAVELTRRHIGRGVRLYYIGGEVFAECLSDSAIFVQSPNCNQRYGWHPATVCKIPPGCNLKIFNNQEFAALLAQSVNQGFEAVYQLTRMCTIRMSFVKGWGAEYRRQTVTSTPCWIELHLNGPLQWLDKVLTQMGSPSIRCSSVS

Row | binding | Substance
1 | binds | HA-Smad2 (wild type) (from UniProt Q15796 1-467)
2 | binds | HA-Smad2-C-ter (from UniProt Q15796 274-467) (domain or fragment)
3 | binds | HA-Smad3 (wild type) (from UniProt P84022 1-425)
